For one compound, Emin and Emax results are on record in ChEMBL document CHEMBL4376840, “Application of Fluorine- and Nitrogen-Walk Approaches: Defining the Structural and Functional Diversity of 2-Phenylindole Class of Cannabinoid 1 Receptor Positive Allosteric Modulators” (J Med Chem, 2020).

Chains of the proteins cited; added tags and fusions are not shown.
UniProt P20272, whole entry: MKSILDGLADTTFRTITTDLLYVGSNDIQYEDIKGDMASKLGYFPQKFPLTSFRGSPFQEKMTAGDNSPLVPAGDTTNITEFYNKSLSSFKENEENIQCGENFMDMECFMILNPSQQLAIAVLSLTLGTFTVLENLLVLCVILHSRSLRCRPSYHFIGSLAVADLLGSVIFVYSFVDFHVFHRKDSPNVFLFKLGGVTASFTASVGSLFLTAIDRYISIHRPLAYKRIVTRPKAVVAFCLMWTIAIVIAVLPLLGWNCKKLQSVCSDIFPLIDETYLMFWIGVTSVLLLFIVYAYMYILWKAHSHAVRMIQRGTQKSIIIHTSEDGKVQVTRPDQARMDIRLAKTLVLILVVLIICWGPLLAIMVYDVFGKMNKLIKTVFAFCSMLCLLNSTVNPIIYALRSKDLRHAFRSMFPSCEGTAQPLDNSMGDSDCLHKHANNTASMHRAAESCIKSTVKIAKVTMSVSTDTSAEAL

What all share (type): functional, cell-based
In assay [1] the target is Cannabinoid receptor 1 (Rattus norvegicus) (UniProt P20272). Description: Allosteric agonist activity at N-terminal GFP-tagged rat CB1R expressed in HEK293 cells assessed as inhibition of forskolin-induced cAMP production by measuring cAMP accumulation at minimal level at higher concentrations after 30 min by TR-FRET assay relative to forskolin. In short, it runs like this:
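HEK293 cells stably expressing N-terminal GFP-tagged rat CB1R were trypsin-EDTA dissociated and resuspended in HBSS with 0.1% BSA and 0.5mM IBMX at 500 cells/well. Cells got 5μM forskolin plus compound (1 pM – 10 μM) alone for 30 min. 4-parameter fit; Emin is the lower plateau. n ≥ 3, triplicate.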
In general terms: Cyclic AMP is a second messenger, typically raised through Gs and lowered through Gi signalling.

The target is the same in assay [2]. Description: Positive allosteric modulatory activity at N-terminal GFP-tagged rat CB1R receptor expressed in HEK293 cells assessed as increase in CP55940-induced inhibition of forskolin-induced cAMP accumulation by measuring Emax for cAMP accumulation at low concentration of CP55940 at 0.1 microM after 30 mins by TR-FRET assay relative to forskolin.
The target is the same in assay [3]. Description: Positive allosteric modulatory activity at N-terminal GFP-tagged rat CB1R receptor expressed in HEK293 cells assessed as increase in CP55940-induced inhibition of forskolin-induced cAMP accumulation by measuring Emax for cAMP accumulation at low concentration of CP55940 at 0.3 microM after 30 mins by TR-FRET assay relative to forskolin.
Assay [4] shares this target. Description: Positive allosteric modulatory activity at N-terminal GFP-tagged rat CB1R receptor expressed in HEK293 cells assessed as increase in CP55940-induced inhibition of forskolin-induced cAMP accumulation by measuring Emax for cAMP accumulation at low concentration of CP55940 at 0.001 microM after 30 mins by TR-FRET assay relative to forskolin.
Assay [5] has the same target. Description: Positive allosteric modulatory activity at N-terminal GFP-tagged rat CB1R receptor expressed in HEK293 cells assessed as increase in CP55940-induced inhibition of forskolin-induced cAMP accumulation by measuring Emax for cAMP accumulation at low concentrations of CP55940 at 0.03 microM after 30 mins by TR-FRET assay relative to forskolin.

Each structure is given as a SMILES string.

By Emax is commonly meant the size of the effect at its maximum, as opposed to the concentration needed. As to `O=[N+]([O-])CC(c1ccccc1)c1c(-c2ccccc2)[nH]c2ccccc12` (racemic), the Emin in assay [1] was 39%. In addition, the Emax is 82% in assay [2], 75% in assay [3], 101% in assay [4] and 100% in assay [5].
